Assay results taken from patent publication US10829495B2, “Thieno-pyrimidine derivatives and uses thereof” (ZHEJIANG JIANFENG-YIEN BIOTECHNOLOGY CO., LTD., priority 2015, dated 2020).
The structures given here were assigned with low confidence; some may be wrong.

Amino acid sequences for entries named in this document (tags omitted). Residues count along the entry.
UniProt P00533, 25-1210 T790M limits assumed: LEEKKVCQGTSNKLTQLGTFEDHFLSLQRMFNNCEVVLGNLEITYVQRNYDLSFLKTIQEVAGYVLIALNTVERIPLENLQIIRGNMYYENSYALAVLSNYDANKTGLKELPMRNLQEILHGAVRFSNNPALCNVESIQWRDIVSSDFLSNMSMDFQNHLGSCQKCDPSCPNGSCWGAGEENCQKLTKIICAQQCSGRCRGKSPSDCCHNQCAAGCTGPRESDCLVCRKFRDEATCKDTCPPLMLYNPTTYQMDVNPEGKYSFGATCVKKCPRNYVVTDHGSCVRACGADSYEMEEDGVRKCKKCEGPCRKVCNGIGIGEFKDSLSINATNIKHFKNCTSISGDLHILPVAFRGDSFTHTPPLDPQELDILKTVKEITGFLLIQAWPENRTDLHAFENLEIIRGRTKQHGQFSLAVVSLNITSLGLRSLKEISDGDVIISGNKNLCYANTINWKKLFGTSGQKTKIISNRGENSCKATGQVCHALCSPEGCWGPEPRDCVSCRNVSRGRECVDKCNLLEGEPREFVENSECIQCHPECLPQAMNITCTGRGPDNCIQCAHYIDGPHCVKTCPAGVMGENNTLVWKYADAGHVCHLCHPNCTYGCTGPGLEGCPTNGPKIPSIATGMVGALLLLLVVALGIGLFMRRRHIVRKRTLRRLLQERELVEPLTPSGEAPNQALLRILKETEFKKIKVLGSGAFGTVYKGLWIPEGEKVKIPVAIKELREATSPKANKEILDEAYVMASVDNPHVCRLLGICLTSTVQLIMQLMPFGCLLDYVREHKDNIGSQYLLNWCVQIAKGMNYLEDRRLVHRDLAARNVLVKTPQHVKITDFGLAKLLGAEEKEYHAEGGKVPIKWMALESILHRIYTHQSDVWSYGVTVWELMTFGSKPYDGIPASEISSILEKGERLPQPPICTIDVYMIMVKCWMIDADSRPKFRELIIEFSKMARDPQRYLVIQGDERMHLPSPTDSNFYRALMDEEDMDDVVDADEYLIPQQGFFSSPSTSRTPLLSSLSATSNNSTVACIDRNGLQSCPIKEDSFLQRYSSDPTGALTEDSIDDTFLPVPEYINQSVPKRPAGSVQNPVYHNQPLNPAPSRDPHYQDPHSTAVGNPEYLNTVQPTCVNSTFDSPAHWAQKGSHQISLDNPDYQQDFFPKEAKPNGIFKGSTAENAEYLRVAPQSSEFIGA

Legend:
[1] = molecular target: EGFR T790M (Homo sapiens, UniProt P00533, T790M); test: EGFR enzyme assay; details: read-out: T790M (IC50), T790M mutant
[2] = system: NCI-H1975 cells; test: Efficacy studies in tumor bearing mice (NCI-H1975 xenograft); details: female nu/nu mice, subcutaneous NCI-H1975 tumors, orally at 40 mg/kg daily

IC50 [1]: < 100 nM
Structure (SMILES): C=CC(=O)Nc1cc(Nc2nc(-c3cn(C)c4ccccc34)c3ccsc3n2)c(OC)cc1N(C)CCN(C)C
Tumor growth inhibition (%) [2]: >50%
